The record followed here is article PMC6191436.

The chains behind the UniProt entries cited, without tags or fusion partners.
UniProt P14635: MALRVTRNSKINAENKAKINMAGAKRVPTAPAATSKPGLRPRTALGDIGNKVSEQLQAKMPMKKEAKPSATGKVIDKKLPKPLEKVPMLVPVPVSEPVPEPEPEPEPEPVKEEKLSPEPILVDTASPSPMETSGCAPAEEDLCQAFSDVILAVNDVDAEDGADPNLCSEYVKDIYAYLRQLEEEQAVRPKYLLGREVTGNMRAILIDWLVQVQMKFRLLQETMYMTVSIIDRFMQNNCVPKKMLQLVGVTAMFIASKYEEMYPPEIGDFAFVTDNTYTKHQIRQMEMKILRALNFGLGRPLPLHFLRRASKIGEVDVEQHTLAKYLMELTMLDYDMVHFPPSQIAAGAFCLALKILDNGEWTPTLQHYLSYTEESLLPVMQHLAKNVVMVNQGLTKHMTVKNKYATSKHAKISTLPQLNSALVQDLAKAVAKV

Results are given in words; binding and its absence hold for the method and conditions named. Binding seen in cells or lysates may run through a third protein. A result given as binding can be weak or reduced; the word gives no strength.

Assay [1] concerns the target FLAG-cyclin B1 (UniProt P14635). Put plainly: co-IP; lysates of transfected 293T cells, with or without irradiation (10 Gy); anti-FLAG M2 affinity gel, eluted with FLAG peptides; immunoblot. For orientation: Immunoblotting shows a protein as a band on a membrane.
The target is the same in assay [2]. Put plainly: co-IP; MCF7 cells transfected with Myc-BRCA1-Δ11 and FLAG-cyclin B1, synchronised (aphidicolin 0.3 μM 24 h, release 8 h, nocodazole 100 ng/mL 24 h, release 2 h), without or with irradiation (10 Gy); anti-FLAG antibody-conjugated agarose; Western blot with anti-Myc.

As for Myc-BRCA1-Δ11 (from UniProt P38398-5), the binding result with FLAG-cyclin B1 [1] and with FLAG-cyclin B1 [2] was “binds” throughout.
